Source: paper doi:10.1101/2023.01.16.524289

Protein sequences, listed by entry. Tags and fused reporters are not part of them.
UniProt P70372, whole entry: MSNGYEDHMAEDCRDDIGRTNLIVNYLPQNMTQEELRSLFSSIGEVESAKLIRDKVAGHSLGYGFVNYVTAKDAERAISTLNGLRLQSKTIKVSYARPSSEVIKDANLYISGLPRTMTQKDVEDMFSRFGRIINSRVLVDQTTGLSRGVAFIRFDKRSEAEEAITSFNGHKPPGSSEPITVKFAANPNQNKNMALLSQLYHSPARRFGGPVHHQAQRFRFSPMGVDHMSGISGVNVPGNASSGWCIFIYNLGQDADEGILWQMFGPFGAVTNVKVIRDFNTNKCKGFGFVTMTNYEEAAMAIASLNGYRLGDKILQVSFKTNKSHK

Target: HuR (endogenous) (Mus musculus (RAW264.7 cells)) (UniProt P70372)
Test: pull-down, immunoblot
Conditions: DMSO-treated cells, about 50% lower after 10 uM TM7nox; protein in an extract

AUUAUUUAUUAUUUAUUUAUUAUUUA [Bi-TNF ARE probe (26 nt)]
binding result: binds

For at least one entry, the source does not settle the construct or the ends of the probe. At least one result comes from cells or an extract, where the contact may be indirect.
